# Results from the supplement of paper PMC3334620.
# Over roughly 33,000 sequences, “E-score (-0.5 to 0.5)” has its median near -0.0014; the highest 2% begin near 0.25. This is one part of the list.
# Target: T1, Cad1 (UniProt P24813)
# T1 sequence: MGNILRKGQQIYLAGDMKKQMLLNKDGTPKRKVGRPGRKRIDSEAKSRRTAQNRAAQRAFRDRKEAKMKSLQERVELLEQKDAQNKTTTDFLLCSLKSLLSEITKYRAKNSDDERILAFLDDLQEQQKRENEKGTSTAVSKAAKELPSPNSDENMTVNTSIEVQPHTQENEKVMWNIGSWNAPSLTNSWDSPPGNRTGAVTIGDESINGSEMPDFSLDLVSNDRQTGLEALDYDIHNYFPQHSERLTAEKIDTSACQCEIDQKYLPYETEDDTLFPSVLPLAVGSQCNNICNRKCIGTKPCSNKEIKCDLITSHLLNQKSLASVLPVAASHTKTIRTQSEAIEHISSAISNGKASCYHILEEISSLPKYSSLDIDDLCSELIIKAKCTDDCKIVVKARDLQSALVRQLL
# Assay: PBM E-score (8-mer binding enrichment) (E-score (-0.5 to 0.5)); higher = stronger / more preferred TF binding
# Details: protein concentration: 100 nM; construct: GST-full length
# In short: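 E-scores (a modified Wilcoxon-Mann-Whitney statistic) were assigned by the Universal PBM Analysis Suite to every ungapped eight-base word pooled with its reverse complement. The input came from universal all-10-mer Agilent arrays made double-stranded by primer extension and probed with GST-tagged yeast transcription factors at about 100-200 nM. Fluorescent anti-GST detected bound protein, and masliner normalised the scans.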
row,Sequence,PBM E-score
1,CGTCTTGA,0.153
2,AATTATCC,0.0534
3,ACATGGTA,0.00102
4,ATTCATGA,0.0482
5,CCACCGAA,-0.0212
6,ATCAAAGG,0.129
7,ATGAGACC,0.0675
8,ACGCCATC,0.00377
9,CAAGGGCA,-0.123
10,GCGGGCCA,-0.0258
11,ATGGCCAA,-0.046
12,GTGTAATA,0.194
13,TACATTAA,0.26
14,AGATTTAG,0.00099
15,CTCTTGTC,-0.0328
16,AATTTGCG,0.173
17,GCTGTACA,0.0743
18,GAACATTC,0.242
19,ATGTGGGA,-0.0628
20,CTTGACAA,0.102
21,GAGGCGAA,-0.00703
22,CGAGGGTC,-0.267
23,ACATTAGG,-0.0351
24,GGCCTGAC,0.00354
25,ACTGGAAA,0.0386

row,Sequence,PBM E-score
1,CACTGGAA,-0.0819
2,GACAAGCA,-0.021
3,GAGCGAGA,0.18
4,ATTCTTTC,-0.0222
5,AAGCTCGT,-0.0206
6,CGAGCCTC,-0.133
7,CCGCAGGA,-0.122
8,ACCGAAGC,-0.192
9,ATCGCGCG,0.282
10,ACGAAGGC,-0.219
11,ACGCCTCT,-0.183
12,CGCCGATA,0.137
13,GATCATCA,-0.0788
14,AGGCGACC,-0.22
15,GCCAGCCC,-0.0394
16,CCGTAAAC,0.0152
17,CCATGGAC,0.0444
18,ACAGAAGT,0.0159
19,ATCGATCA,0.142
20,TCACCTGA,-0.0665
21,ACTGTAGG,0.183
22,ACGAAGGA,-0.146
23,TCTTAAAA,0.14
24,GTTATGGA,0.141
25,AAAGGTCG,-0.19

row,Sequence,PBM E-score
1,CTTACGTC,-0.0353
2,TCATTAAA,0.265
3,TCCATGCA,0.165
4,CACTCCGA,-0.198
5,ACTCTACA,-0.118
6,AGCACGCT,-0.181
7,AATGCCCG,-0.189
8,AAGCACCA,-0.0991
9,CCTCTGCC,-0.303
10,ACCAATAG,-0.201
11,ATTTGCCG,0.0772
12,CTCTCCTA,-0.129
13,AACATACG,0.193
14,AGTGCTTG,-0.00083
15,CGAATGTC,0.0955
16,AACAGCGA,-0.141
17,ATGAACAA,0.188
18,GAGGCTAC,-0.142
19,AATAGGCA,-0.0277
20,CGAGTTTC,0.101
21,AGTGGTTG,0.0453
22,ACGGCGTG,0.16
23,GAAGGACC,-0.162
24,GAATAGCC,-0.199
25,ACCTTACC,0.0685

row,Sequence,PBM E-score
1,TAGCAACA,0.175
2,CCGCTAGC,-0.221
3,GGACGCGA,0.0385
4,AGCTGTAT,-0.0557
5,GCCGTACA,0.146
6,CCCGCATA,-0.0109
7,ATTTCTGC,0.235
8,CTTAAGCA,0.0927
9,AGAGAGGA,-0.277
10,CCGCCAAC,-0.0934
11,GTGAGAAA,0.0363
12,CCACGGGG,-0.351
13,GTTAGAAA,0.127
14,AAACAACC,-0.0909
15,AAAGAGTT,-0.181
16,AATTATTG,0.114
17,GAGGAGGA,-0.137
18,CCCTGCCG,-0.224
19,GTGTCGTA,0.109
20,ACCGGTAA,-0.0905
21,AATATGAC,0.101
22,CCTATTAA,-0.00224
23,ACCGTTAG,-0.0588
24,AGCCAATG,-0.126
25,CTCTCAGA,-0.108

row,Sequence,PBM E-score
1,ACTCGTGG,0.0496
2,CAGATAAC,0.163
3,GTGCCGTA,0.0122
4,GGTACGCA,0.0977
5,GTGCGTCA,0.0271
6,CAACTAGC,0.234
7,CTTTTAAC,-0.0503
8,CGGACAGA,0.132
9,CTTATGTA,0.175
10,ATCCAGCC,-0.0611
11,TAACGTAA,0.225
12,ACACGCGA,0.143
13,CCCGGACA,0.039
14,TAGATTCA,-0.0561
15,AAAGTCCG,0.0869
16,AACTTGGT,0.0836
17,AGACTGAA,-0.102
18,CCCGTTCG,0.016
19,ACCTCCAT,-0.189
20,GTCGGTCA,-0.12
21,CACGAGAC,0.0717
22,CCGAACTA,-0.0237
23,ATTCAGAG,0.127
24,CGTATCAG,0.0211
25,AGAATCGA,0.0389

row,Sequence,PBM E-score
1,ACGCCTAG,-0.161
2,AAACGGTT,-0.117
3,CGGGTCAC,-0.088
4,AAACGAAT,0.017
5,AGAACGAC,-0.0636
6,CAGTAAGG,-0.084
7,CTTAGCGC,0.243
8,CGCTCGAC,-0.178
9,CTCCTGAC,0.0488
10,TCGGATCA,0.166
11,CAGGTATG,-0.062
12,AGTATTGG,-0.102
13,ACCGTGCT,-0.0978
14,GGACCGCC,-0.204
15,AAAGGATG,0.0537
16,GAGTTCAC,0.144
17,AAAAAGCA,0.0714
18,TACCAATA,0.123
19,TCACTACA,0.224
20,CCCCCTAA,-0.347
21,AAAGTCAC,-0.0757
22,CCACATAG,-0.104
23,GCGGGACA,0.149
24,AGTTACAT,-0.122
25,CGTGGCGC,-0.0933

row,Sequence,PBM E-score
1,CTGCTAAA,0.0566
2,AGATGGTA,-0.0232
3,CAAGGGAC,-0.0828
4,CACGGGTA,0.0219
5,AAACGTAA,0.139
6,ATATCACA,-0.0323
7,ACCCTTAG,-0.125
8,TATTCAGA,0.137
9,ATCGTTCC,-0.109
10,AGCGTCTG,-0.0442
11,AGACCATG,-0.219
12,CTTTCGAA,-0.162
13,ATAGGTAC,-0.0816
14,ACCTAGGG,-0.0226
15,AGAACTTA,0.194
16,GTTAGAGA,-0.156
17,AATTCCCA,0.0646
18,CTCTACTC,-0.1
19,AAACTAGA,-0.0395
20,AGGCTAGC,-0.136
21,AGTTCTAG,0.0566
22,AACTTCAC,0.17
23,CCCTTTCG,-0.0518
24,AAAGACAC,-0.065
25,ATACTACC,0.0181

row,Sequence,PBM E-score
1,CAGCCAAG,-0.0374
2,AACTGGGG,-0.238
3,ATGTAACG,0.257
4,GATGAACC,-0.0181
5,GATGGGCC,-0.0485
6,ATAGTCCG,0.128
7,CGAACAAC,0.125
8,ATAATACA,0.263
9,CGTCAGCC,0.168
10,AGTCATAG,0.0922
11,TAAGAGAA,0.013
12,TGAACACA,0.0608
13,GATGGCTA,-0.079
14,CGGCTAAG,0.0298
15,CTCGAGGC,0.127
16,AAAGCTAG,-0.0889
17,CCGGCACG,0.0437
18,GGGTCCCA,-0.117
19,CCCCGCAG,-0.126
20,ACGAAAAA,-0.045
21,CCTCTATA,0.0137
22,ATTGTCGC,0.115
23,ATATGAGG,0.00714
24,CGCAGCGA,0.175
25,CGCGCGTC,0.138

row,Sequence,PBM E-score
1,CGCAGGCC,0.0274
2,CGAAGCCC,-0.163
3,GGCCACAA,-0.0332
4,AAGCAGTG,0.0829
5,GAAACGGA,0.195
6,CAATATAA,0.283
7,TGCGAGCA,0.0777
8,CGTACGGC,-0.0837
9,ATATAACG,0.225
10,CACGTCAC,0.144
11,GGGATCCA,-0.0302
12,CGTGTAGA,0.0137
13,AGGTGACG,0.0321
14,AAGAGTCG,0.0695
15,CCCGAGAA,0.0293
16,ATTGAACA,0.0432
17,ATACCCAG,-0.229
18,GGTGACTA,0.114
19,CCTGATGC,0.142

# 6 records drawn at random from those above:
row,Sequence,PBM E-score
11,GGGATCCA,-0.0302
9,ATATAACG,0.225
16,ATTGAACA,0.0432
4,AAGCAGTG,0.0829
6,CAATATAA,0.283
7,TGCGAGCA,0.0777

# Another view of some results above.
row | Sequence | PBM E-score
2 | CGAAGCCC | -0.163
8 | CGTACGGC | -0.0837
12 | CGTGTAGA | 0.0137
13 | AGGTGACG | 0.0321
14 | AAGAGTCG | 0.0695
